This is an account of results in article PMC5752520.

Amino acid sequences for entries named in this document (tags omitted).
UniProt P10275: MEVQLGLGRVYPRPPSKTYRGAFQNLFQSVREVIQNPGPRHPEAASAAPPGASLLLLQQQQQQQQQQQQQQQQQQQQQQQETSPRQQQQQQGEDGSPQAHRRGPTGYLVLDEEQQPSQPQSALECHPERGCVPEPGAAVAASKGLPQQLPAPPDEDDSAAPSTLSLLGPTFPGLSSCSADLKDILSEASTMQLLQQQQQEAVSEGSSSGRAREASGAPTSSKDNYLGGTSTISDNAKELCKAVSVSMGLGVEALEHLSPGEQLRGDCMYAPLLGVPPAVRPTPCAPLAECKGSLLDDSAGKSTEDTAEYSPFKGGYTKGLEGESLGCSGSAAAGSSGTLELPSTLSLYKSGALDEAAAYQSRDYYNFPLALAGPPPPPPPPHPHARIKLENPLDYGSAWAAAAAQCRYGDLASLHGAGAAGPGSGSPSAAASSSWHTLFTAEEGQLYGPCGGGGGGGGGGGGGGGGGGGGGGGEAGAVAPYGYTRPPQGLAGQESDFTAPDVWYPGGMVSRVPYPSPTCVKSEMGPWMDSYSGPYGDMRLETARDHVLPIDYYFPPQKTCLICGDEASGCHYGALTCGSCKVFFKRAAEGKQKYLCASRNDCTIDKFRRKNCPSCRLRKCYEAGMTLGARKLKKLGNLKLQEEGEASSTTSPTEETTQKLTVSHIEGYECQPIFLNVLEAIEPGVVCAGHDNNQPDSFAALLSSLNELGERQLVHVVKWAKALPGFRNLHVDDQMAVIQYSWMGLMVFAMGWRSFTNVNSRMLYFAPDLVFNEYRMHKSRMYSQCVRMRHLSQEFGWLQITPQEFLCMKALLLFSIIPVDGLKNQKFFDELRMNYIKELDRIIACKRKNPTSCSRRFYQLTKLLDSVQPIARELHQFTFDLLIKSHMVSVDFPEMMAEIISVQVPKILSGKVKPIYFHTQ

No constants are given. Whether binding was seen depends on the method and setting. For some assays here: In cells and extracts the contact can be indirect. Some binding calls cover weakened binding; strength is not graded here. Tags and fused reporters may be left off the sequences shown.

For assay [1], the target named is T1, GST-ETS1 (UniProt P14921).
T1 sequence: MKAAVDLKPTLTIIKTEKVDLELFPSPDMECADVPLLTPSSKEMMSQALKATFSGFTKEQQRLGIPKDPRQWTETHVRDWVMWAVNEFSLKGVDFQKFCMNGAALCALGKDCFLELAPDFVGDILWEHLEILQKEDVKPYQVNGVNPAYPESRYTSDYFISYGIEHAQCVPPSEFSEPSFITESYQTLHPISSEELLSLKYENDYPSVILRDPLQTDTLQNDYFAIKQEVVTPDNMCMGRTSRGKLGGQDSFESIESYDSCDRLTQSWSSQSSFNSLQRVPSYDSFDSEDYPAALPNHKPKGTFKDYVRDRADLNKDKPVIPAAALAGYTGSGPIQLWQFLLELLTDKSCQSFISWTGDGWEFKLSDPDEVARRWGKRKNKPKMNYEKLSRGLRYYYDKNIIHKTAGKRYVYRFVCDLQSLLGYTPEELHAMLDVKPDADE
In words: pull-down; GST-AR, GST-ETS1 or GST on glutathione-Sepharose beads incubated with purified FLAG-ETS1 or FLAG-AR at 4°C, in the presence or absence of 100 nM DHT; SDS-PAGE and western blotting; both purified.

For assay [2], the target named is T2, FLAG-tagged ETS-1 (UniProt P14921).
T2 sequence: T1 sequence
In words: co-IP; HepG2 cells transfected with FLAG-AR or FLAG-ETS1 (or FLAG empty vector); lysates immunoprecipitated with anti-FLAG monoclonal antibody, blotted with anti-ETS-1 or anti-AR; treated without or with 100 nM DHT.

As for “purified FLAG-labeled AR (from UniProt P10275 1-920) (receptor)”, in assay [1], the binding result was “binds”.

In the case of “endogenous androgen receptor (AR) (from UniProt P10275 1-920)”, the binding entry in assay [2] is given as “binds”.
